Paper PMC11808628
These are yes or no findings as the source states them, for the method shown. Some entries that bind do so weakly or less than the wild type.

Protein sequences, listed by entry. Tags and fused reporters are not part of them.
UniProt Q9WTS4: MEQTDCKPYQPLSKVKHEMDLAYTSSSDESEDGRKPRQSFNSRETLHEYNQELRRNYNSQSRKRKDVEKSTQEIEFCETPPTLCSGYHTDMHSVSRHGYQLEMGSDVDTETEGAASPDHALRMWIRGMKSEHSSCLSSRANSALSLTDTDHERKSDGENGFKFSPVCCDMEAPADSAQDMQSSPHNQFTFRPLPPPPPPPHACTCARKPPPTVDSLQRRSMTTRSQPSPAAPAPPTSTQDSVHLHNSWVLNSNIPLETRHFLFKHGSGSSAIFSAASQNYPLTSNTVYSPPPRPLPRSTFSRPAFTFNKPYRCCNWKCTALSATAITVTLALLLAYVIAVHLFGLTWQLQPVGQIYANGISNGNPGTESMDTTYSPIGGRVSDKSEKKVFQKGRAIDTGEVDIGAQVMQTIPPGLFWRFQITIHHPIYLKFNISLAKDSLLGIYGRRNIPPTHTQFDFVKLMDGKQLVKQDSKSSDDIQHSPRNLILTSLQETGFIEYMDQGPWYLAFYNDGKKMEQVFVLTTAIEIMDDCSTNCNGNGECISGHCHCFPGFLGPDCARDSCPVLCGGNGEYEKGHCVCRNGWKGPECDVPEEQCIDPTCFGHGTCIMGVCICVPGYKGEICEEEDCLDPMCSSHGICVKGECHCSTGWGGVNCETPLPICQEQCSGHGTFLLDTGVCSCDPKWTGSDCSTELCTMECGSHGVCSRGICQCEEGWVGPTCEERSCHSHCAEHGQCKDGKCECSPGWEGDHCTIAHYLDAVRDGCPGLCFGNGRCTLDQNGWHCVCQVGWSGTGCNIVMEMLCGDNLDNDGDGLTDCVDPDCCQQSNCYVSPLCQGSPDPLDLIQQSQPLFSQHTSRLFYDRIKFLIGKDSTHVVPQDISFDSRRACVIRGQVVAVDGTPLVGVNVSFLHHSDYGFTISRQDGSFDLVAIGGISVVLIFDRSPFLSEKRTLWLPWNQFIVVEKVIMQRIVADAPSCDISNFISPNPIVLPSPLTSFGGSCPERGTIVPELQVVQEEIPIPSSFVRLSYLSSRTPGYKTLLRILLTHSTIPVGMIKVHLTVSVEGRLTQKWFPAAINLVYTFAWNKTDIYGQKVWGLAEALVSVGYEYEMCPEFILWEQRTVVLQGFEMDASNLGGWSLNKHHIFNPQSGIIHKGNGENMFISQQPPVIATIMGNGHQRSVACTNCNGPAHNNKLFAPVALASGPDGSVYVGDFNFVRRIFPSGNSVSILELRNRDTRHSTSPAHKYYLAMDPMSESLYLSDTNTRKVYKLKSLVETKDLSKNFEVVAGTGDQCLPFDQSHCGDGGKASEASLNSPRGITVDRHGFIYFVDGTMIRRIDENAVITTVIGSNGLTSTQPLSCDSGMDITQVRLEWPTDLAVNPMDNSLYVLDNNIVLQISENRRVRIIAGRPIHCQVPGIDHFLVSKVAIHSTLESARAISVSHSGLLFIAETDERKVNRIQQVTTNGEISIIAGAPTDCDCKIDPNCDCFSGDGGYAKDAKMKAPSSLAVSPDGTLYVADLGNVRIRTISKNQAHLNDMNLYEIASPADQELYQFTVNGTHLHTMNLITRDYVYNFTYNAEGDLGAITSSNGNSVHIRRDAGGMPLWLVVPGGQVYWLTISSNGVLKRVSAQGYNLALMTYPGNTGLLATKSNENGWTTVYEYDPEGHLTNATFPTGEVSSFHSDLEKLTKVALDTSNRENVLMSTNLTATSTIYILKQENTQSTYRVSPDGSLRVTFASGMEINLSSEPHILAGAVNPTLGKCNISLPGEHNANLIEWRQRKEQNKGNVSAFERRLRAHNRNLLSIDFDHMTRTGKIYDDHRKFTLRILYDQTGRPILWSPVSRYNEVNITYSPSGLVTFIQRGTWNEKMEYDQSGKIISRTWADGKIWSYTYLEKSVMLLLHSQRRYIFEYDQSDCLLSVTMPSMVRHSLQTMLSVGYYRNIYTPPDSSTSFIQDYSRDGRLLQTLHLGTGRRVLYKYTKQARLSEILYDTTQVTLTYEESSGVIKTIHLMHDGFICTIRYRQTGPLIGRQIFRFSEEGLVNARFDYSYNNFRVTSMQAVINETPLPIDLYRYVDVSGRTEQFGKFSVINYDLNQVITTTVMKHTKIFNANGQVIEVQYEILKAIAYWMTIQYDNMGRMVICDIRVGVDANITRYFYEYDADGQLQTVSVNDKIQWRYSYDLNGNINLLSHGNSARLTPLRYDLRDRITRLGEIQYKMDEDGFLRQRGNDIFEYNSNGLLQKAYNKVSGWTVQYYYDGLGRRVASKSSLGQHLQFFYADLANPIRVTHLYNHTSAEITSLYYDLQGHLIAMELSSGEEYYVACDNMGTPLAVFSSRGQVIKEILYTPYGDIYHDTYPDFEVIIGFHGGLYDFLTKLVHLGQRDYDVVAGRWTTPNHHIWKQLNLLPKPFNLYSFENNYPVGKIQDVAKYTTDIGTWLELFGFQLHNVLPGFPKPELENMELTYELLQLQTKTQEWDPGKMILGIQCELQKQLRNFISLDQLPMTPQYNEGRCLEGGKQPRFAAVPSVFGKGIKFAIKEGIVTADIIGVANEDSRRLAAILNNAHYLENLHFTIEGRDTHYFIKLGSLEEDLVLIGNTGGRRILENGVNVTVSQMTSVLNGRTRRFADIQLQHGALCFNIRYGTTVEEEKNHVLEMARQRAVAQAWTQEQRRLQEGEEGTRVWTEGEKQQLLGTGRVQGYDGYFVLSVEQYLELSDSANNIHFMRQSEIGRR
UniProt Q9JIR4: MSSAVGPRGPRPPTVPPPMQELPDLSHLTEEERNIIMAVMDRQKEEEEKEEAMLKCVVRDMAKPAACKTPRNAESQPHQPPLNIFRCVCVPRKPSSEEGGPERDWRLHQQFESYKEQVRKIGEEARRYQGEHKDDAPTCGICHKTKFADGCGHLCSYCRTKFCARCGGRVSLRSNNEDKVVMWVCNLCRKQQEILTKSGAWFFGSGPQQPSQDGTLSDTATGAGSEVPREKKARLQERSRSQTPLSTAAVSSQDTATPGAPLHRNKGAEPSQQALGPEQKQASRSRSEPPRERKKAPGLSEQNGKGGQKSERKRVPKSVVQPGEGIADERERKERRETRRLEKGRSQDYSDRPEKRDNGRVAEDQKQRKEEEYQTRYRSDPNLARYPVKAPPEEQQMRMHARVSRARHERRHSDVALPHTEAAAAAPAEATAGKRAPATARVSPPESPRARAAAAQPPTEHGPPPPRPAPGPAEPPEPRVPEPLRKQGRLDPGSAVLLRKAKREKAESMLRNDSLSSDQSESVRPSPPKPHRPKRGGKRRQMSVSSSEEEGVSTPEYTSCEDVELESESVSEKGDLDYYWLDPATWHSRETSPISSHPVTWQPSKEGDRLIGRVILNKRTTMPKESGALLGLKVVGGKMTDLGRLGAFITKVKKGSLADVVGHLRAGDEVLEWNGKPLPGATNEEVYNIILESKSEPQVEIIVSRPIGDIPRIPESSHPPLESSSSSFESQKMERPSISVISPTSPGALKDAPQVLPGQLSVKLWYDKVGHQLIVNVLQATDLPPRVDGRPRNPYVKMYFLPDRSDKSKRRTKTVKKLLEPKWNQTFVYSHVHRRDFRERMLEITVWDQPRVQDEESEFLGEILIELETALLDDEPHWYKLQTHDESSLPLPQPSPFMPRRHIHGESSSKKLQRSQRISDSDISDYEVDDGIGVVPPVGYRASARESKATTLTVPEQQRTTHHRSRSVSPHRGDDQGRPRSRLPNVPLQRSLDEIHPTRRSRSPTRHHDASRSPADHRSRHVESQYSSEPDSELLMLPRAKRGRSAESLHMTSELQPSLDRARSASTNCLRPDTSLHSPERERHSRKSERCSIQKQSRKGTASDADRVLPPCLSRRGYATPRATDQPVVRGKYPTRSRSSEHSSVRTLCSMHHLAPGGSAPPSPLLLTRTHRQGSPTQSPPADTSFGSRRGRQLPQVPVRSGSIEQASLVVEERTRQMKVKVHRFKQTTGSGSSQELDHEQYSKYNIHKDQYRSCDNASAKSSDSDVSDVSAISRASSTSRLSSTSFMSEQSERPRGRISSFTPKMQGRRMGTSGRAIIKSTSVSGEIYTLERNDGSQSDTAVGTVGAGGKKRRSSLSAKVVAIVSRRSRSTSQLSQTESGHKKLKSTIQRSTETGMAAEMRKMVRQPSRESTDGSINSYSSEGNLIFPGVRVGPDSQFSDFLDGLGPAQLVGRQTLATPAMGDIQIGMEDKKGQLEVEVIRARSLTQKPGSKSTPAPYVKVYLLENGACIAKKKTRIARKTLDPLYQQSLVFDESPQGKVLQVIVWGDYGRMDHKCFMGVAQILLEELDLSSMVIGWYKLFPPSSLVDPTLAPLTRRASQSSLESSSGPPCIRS

Tests used:
Teneurin-4 = Teneurin-4 (UniProt Q3UHK6); experiment: membrane-recruitment assay (imaging of transfected cells); transfected HEK293/HEK293T cells co-expressing Flag-tagged RIM1 or RIM-BP2 constructs with HA-tagged teneurins; Flag and HA epitopes imaged
Teneurin-2 = Teneurin-2 (UniProt Q9WTS5); experiment: as above
HA-tagged Tenm3^WT = HA-tagged Tenm3^WT (UniProt Q9WTS6); experiment: as above
Teneurin-1 = Teneurin-1 (UniProt Q9WTS4); experiment: as above
[1] = target: RIM1 and RIM-BP2 active zone LLPS condensates (UniProt Q9JIR4); experiment: imaging of recruitment into LLPS condensates; purified proteins; RIM1 and RIM-BP2 10 μM each (Fig. 2) or 20 μM each (Fig. 3), Tenm3 proteins 1 μM; iFluor-labelled proteins imaged; both purified

binding (Teneurin-4)	binding (Teneurin-2)	binding (HA-tagged Tenm3^WT)	binding (Teneurin-1)	binding [1]	Substance
binds	binds	binds	binds		Flag-tagged RIM1 (from UniProt Q9JIR4 1-1615)
				no binding (tested: 1 μM)	Tenm3 extracellular domains (ECD), purified (from UniProt Q9WTS6 332-2715) (domain or fragment)
